Laboratory results reported in paper PMC8457831, “Structural basis for diguanylate cyclase activation by its binding partner in Pseudomonas aeruginosa” (eLife, 2021).
No constants are given. Whether binding was seen depends on the method and setting. Where a sequence is shown, tags or fusion partners need not be part of it.

Target: SiaC (sumo-His tag removed) (Pseudomonas aeruginosa)
Experiment: SEC-MALS; single proteins: SiaC at 1.5 mg/ml, SiaD at 8 mg/ml, WTC-030S5 column, 20 mM HEPES pH 7.0, 150 mM NaCl, DTT; both purified

B1: SiaC (sumo-His tag removed) (protein, UniProt A0A072ZHB4 1-126)
chain: MSDLHIPGTQSTPAIQGDWQAGRLSMQGDSYPENSYELFGQVIDWVERFLADGQRPLELDLRLLYLNTSSIKAMMDILDLLEEAHQGGRPVSLRWHYDRRNERVAELAEEFREDCSFPFAIQAHDE
  binding: no binding (tested: 1.5 mg/ml)
